{
  "source": "patent EP2961753B1",
  "about": "“STANNOUS FLUORESCENT PROBE” (priority 2014, dated 2015)",
  "system": "KB cells",
  "assay": "Fluorescence imaging of intracellular Sn^2+ (confocal laser scanning microscopy)",
  "type": "cell-based",
  "data": [
    {"smiles": "CCN(CC)c1ccc2c(c1)Oc1cc(N(CC)CC)ccc1C21c2ccccc2C(=O)N1NC(=O)OC(C)(C)C", "note": "[Compound R2]", "values": [
      {"measurement": "fluorescence emission without Sn^2+ present", "setting": "KB cells stained with 10 µM probe at 37 °C for 30 min, λex 543 nm, emission 560-660 nm", "value": "scarcely fluorescence"},
      {"measurement": "change of fluorescence after incubation with Sn^2+", "setting": "KB cells, probe for 30 min at 37 °C, then 50 µM Sn^2+ under the same conditions", "value": "significant fluorescence increasing"}
    ]}
  ]
}
